Data: article PMC8249419
No constants are given. Whether binding was seen depends on the method and setting. In cells and extracts the contact can be indirect. Some results given as binding are weak or reduced against the parent protein; the word gives no strength.

By UniProt entry, the sequences of proteins in these tests, tags left out. Where a name states a change or a piece, a line headed by the entry shows the natural chain unless it says otherwise.
UniProt Q96D31: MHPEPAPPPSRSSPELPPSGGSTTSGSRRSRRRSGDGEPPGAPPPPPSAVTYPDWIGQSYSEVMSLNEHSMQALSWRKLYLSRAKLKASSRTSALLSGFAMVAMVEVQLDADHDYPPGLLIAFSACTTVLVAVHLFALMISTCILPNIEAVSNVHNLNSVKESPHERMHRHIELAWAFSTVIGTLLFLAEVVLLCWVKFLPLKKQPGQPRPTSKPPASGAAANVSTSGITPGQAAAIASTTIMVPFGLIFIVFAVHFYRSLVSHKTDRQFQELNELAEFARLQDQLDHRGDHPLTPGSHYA

Columns and labels:
[1] = target: calcium release-activated calcium channel protein 1 (Orai1) (human) (UniProt Q96D31); assay: FRET or BRET; acceptor-photobleaching FRET microscopy in cells co-transfected with Orai1-CFP and Orai1-YFP, after the femtoSOC laser illumination; Orai1-YFP bleached by intense 488-nm laser scanning for 3 s, CFP fluorescence read
[2] = target: calcium release-activated calcium channel protein 1 (Orai1) (human) (UniProt Q96D31); assay: condition: only without the femtoSOC laser illumination; FRET or BRET; acceptor-photobleaching FRET microscopy in cells co-transfected with Orai1-CFP and Orai1-YFP, without the femtoSOC laser illumination

binding [1]: binds
binding [2]: no binding
Substance: calcium release-activated calcium channel protein 1 (Orai1) (from UniProt Q96D31-1 1-301)
